Data on 62 compounds can be found in PubChem BioAssay AID493014 (National Center for Advancing Translational Sciences (NCATS), 2011).

A short description of the assay: qHTS Assay to Find Inhibitors of Chronic Active B-Cell Receptor Signaling. As to conditions: ABC-DLBCL IkBa-CBG/CBR reporter, luminescence ratio (green luciferase fused to IkBa over red control in TMD8 lymphoma cells), 4 h. The gist of the method: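 Doxycycline induced both beetle luciferases in TMD8 lymphoma cells; IKK-driven degradation limits the IkappaBalpha-fused green signal, while red luminescence normalises for cell number and nonspecific effects. Compounds tested up to 46 uM, 4 hrs.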
On the technique in general: qHTS replaces the single test concentration by a dilution series.

The mark [1] stands for this setting: measured here: CBR red luminescence, cell number.
[2] abbreviates: measured here: IkBa-CBG green luminescence.

The other results are listed elsewhere or left out. These are further read-outs of the screen, such as a control signal, another cell line or another target. No call is given for them. Most of these compounds were active or inconclusive in the main read-out, so they are no random draw. The note in brackets gives the kind of curve behind each potency; many fits are weak.

Broadly, the AC50 is the concentration at which the activity in the assay is half-maximal.

As for `CC(=O)Oc1ccc(C2(C)CC(C)(C)Oc3cc(OC(C)=O)ccc32)c(OC(C)=O)c1` (stereo unspecified), the AC50 under setting [1] is 10 µM [falling, partial curve, poor fit].

In the case of `OCCN1CCN(C(=S)c2ccc(Cl)cc2)CC1`, the half-maximal activity concentration (AC50) under setting [1] is 0.13 µM [rising, full curve, poor fit].

Take `COc1cc(NC(=O)c2cccc([N+](=O)[O-])c2C)ccc1NC(=O)c1ccco1`: the AC50 under setting [1] was 10.3 µM [rising, partial curve, poor fit].

Regarding `O=C(CCNC(=O)c1ccc(Cl)cc1)NCCC1=CCCCC1`, the concentration at half-maximal activity (AC50) under setting [1] is 20.6 µM [rising, single point].

For the compound `COc1ccc(Cl)c2sc(NC(=O)C3=COCCO3)nc12`, the AC50 was 1.3 µM [falling, full curve] under setting [1] and 0.058 µM [rising, full curve, poor fit] under setting [2].

In the case of `CCC(CO)Oc1cc(NCc2ccccc2)c2ncn(C3CCCC3)c2c1` (stereo unspecified), the concentration at half-maximal activity (AC50) under setting [1] was 3.26 µM [rising, partial curve].

Consider `C(=N\Nc1nc2ccccc2[nH]1)/c1cccc2nccnc12`, for which the AC50 under setting [1] was 1.78 µM [falling, full curve].

Regarding `CC(C)(C)C1CCc2c(sc(NC(=O)C3CC=CCC3C(=O)O)c2C#N)C1` (stereo unspecified), the half-maximal activity concentration (AC50) under setting [1] is 32.6 µM [falling, partial curve, poor fit].

Take `COc1cc(OC)cc(C(=O)NNC(=O)Cc2ccc(OC)c(S(=O)(=O)N3CCOCC3)c2)c1`: the concentration at half-maximal activity (AC50) under setting [1] is 29.1 µM [falling, single point].

`CCOC(=O)N1CCN(C(=O)CSc2nnc(-c3cc(OC)ccc3OC)o2)CC1`: the AC50 under setting [1] is 20.6 µM [rising, single point].

On to `Nc1ccc(-c2nnc(-c3ccc(N)cc3)o2)cc1`, for which the concentration at half-maximal activity (AC50) under setting [1] is 15.8 µM [falling, single point].

`C=CC[C@@H](Cc1ccc(F)cc1)C(=O)OC[C@@H]1CCCN1C(=O)[C@H](CC=C)CC(=O)N[C@H](CO)Cc1ccccc1`: the half-maximal activity concentration (AC50) under setting [1] was 29.1 µM [falling, single point].

With `Cc1ccc(Cn2nnc3c(=O)[nH]c(C4CCCN(C(=O)Nc5ccc(F)cc5F)C4)nc32)cc1` (stereo unspecified), the AC50 under setting [1] was 20 µM [falling, partial curve, poor fit].

In the case of `Nc1nn2cc(-c3ccccc3)nc2c2ccccc12`, the AC50 under setting [1] was 2.24 µM [falling, full curve].

On to `COc1ccc(C2(C)NC(=O)N(CC(=O)Nc3ccc(-c4nc5ccc(C)cc5s4)cc3)C2=O)cc1` (stereo unspecified), for which the AC50 under setting [1] is 1.58 µM [rising, partial curve].

For the compound `CCCCn1c(-c2sccc2C)n[nH]c1=S`, under setting [1], the concentration at half-maximal activity (AC50) is 35.5 µM [rising, single point].

`CCOc1ccc(NC(=O)[C@H](C)NC(=O)C2CC(=O)N(c3ccc(OC)cc3)C2)cc1` (stereo partly specified): under setting [1], the AC50 is 0.112 µM [rising, full curve].

As to `Cc1c(OC(C)C(=O)NCC2CCC(C(=O)O)CC2)ccc2c(-c3ccccc3)cc(=O)oc12` (stereo unspecified), the AC50 under setting [1] is 11.2 µM [rising, single point].

Regarding `CCC(=O)N1CCc2cc(Br)cc(S(=O)(=O)N3CCN(C(=O)c4ccco4)CC3)c21`, the AC50 under setting [1] was 25.9 µM [rising, partial curve].

Regarding `COc1ccccc1C1CCN(c2cc(O)ccc2[N+](=O)[O-])CC1`, the AC50 under setting [1] is 15.8 µM [falling, single point].

In the case of `CCCCCOC(=O)Nc1nnc(CCC)s1`, under setting [1], the AC50 is 2 µM [rising, partial curve, poor fit].

As for `Cc1c(N=C2C(=O)Nc3ccccc32)c(=O)n(-c2ccccc2)n1C`, the concentration at half-maximal activity (AC50) under setting [1] is 18.4 µM [falling, single point].

As to `CCn1c(C)c(C)c2cc(C(=O)NCCCN3CCOCC3)ccc21`, the AC50 under setting [1] was 6.31 µM [rising, full curve, poor fit].

Consider `Cc1ccc(-n2nc3c(=O)n(CCCC(=O)NCC(C)c4ccccc4)nc(C)c3c2C)cc1` (stereo unspecified), for which the AC50 under setting [1] was 12.6 µM [falling, single point].

In the case of `O=C(NN=C1CCCC1)c1ccn[nH]1`, under setting [1], the AC50 was 18.4 µM [falling, partial curve, poor fit].

On to `CN1c2ccc(C=O)c3c(C=O)ccc(c23)N(C)C1(C)C`, for which the half-maximal activity concentration (AC50) under setting [1] is 7.94 µM [falling, partial curve].

Consider `Cc1cccc(NC(=O)N2CCc3ccccc3C2)c1C`, for which the half-maximal activity concentration (AC50) under setting [1] was 12.6 µM [falling, partial curve].

Consider `O=C(COc1cccc(F)c1)Oc1ccc(C(=O)c2ccccc2)cc1`, for which the AC50 under setting [1] was 0.731 µM [rising, partial curve, poor fit].

As for `O=C(CCN1C(=O)c2ccccc2C1=O)Nc1ccc(-c2nc3ccccc3s2)cc1`, the AC50 under setting [1] was 13 µM [rising, partial curve, poor fit].

Turning to `Cc1ccc2sc(NNC(=O)c3cc(=O)c4ccccc4o3)nc2c1C`, the AC50 under setting [1] was 1.26 µM [falling, full curve].

For the compound `c1ccc2c(CCNc3ncnc4nc[nH]c34)c[nH]c2c1`, the AC50 under setting [1] was 10.3 µM [falling, partial curve].

`COc1ccccc1/C=N/NC(=O)c1ccc(-c2ccccc2)cc1`: the AC50 under setting [1] is 5.8 µM [falling, partial curve, poor fit].

For `Clc1ccc(-c2nnc(C3CCCCC3)o2)cc1`, the AC50 under setting [1] was 0.651 µM [rising, partial curve, poor fit].

Take `O=C(NCc1cccs1)c1cc(-c2ccccc2)on1`: the half-maximal activity concentration (AC50) under setting [1] was 1.84 µM [falling, full curve].

For the compound `OCCSc1nc(-c2ccccc2)nc2ccc(F)cc12`, the AC50 was 10 µM [falling, single point] under setting [1] and 2.82 µM [rising, partial curve, poor fit] under setting [2].

`CCOc1ccccc1/C=C/c1cc(C(=O)O)c2ccccc2n1`: under setting [1], the AC50 was 2.82 µM [falling, single point].

`Cc1ccc(NC(=O)Cc2sc(C)nc2-c2ccc(C)cc2)cc1`: under setting [1], the half-maximal activity concentration (AC50) is 0.231 µM [rising, full curve, poor fit].

For `Cc1ccc(Nc2nc(C(=O)N3CCC(C(=O)N4CCN(C)CC4)CC3)cs2)cc1`, under setting [1], the half-maximal activity concentration (AC50) is 12.6 µM [rising, partial curve].

Turning to `COc1cc(/C=N/NC(=O)c2cccs2)ccc1OCc1ccccc1`, the half-maximal activity concentration (AC50) under setting [1] is 35.5 µM [falling, single point].

As for `CC(=O)N1CSCC1C(=O)N1CCN(c2ccc(N3CCOCC3)nn2)CC1` (stereo unspecified), the AC50 under setting [1] was 3.26 µM [falling, single point].

For the compound `COC(=O)[C@@]12CCCCN1[C@H](c1ccc(-c3ccc(Cl)c(Cl)c3)c(OC)c1)[C@H]1C(=O)N(C)C(=O)[C@H]12`, the AC50 under setting [1] is 13 µM [rising, partial curve, poor fit].

With `O=C(NC(=S)Nc1ccc(F)cc1)c1ccc2c(c1)OCCO2`, under setting [1], the AC50 is 35.5 µM [falling, single point].

As for `Cc1ccc(-c2ccc(CCC(=O)O)n2Cc2ccco2)cc1`, the concentration at half-maximal activity (AC50) under setting [2] is 23.1 µM [rising, single point].

For the compound `COc1cccc(N2CC(C(=O)NCc3n[nH]c(=O)c4ccccc34)CC2=O)c1` (stereo unspecified), the AC50 under setting [1] was 25.9 µM [falling, single point].

For `COc1ccc(NS(=O)(=O)c2cc(C)ccc2NC(=O)c2cc(C)oc2C)cc1`, the AC50 under setting [1] was 18.4 µM [falling, single point].

`Nc1ncnc2c1ncn2[C@@H]1O[C@H](CNCc2ccccc2)[C@@H](O)[C@H]1O`: under setting [1], the AC50 was 32.6 µM [rising, single point].

With `O=C(Nc1ccc(Cl)cc1)NC1CCCc2ccccc21` (stereo unspecified), under setting [1], the concentration at half-maximal activity (AC50) was 0.891 µM [falling, full curve, poor fit].

`CCCc1nnc(NC(=O)C(C)N2C(=O)C3C4C=CC(C4)C3C2=O)s1` (stereo unspecified): the AC50 under setting [1] is 0.116 µM [rising, full curve].

Take `O=[N+]([O-])c1cc(C(F)(F)F)ccc1NCCc1c[nH]c2ccccc12`: the AC50 is 1.46 µM [rising, partial curve, poor fit] under setting [1] and 18.4 µM [rising, partial curve, poor fit] under setting [2].

For `CCOc1cccc(C(=O)NC(=S)Nc2cccc(C)c2)c1`, the AC50 under setting [1] is 7.31 µM [falling, partial curve, poor fit].

Consider `Fc1cccc(Nc2ncnc3c2cnn3-c2ccccc2)c1`, for which the AC50 under setting [1] was 8.91 µM [falling, partial curve, poor fit].

For `COc1ccc(C)cc1NC(=O)C(OC(=O)Cn1cnc2c1c(=O)n(C)c(=O)n2C)c1ccccc1` (stereo unspecified), the concentration at half-maximal activity (AC50) under setting [1] is 9.2 µM [rising, partial curve, poor fit].

As to `Cc1cc2c(OCC(O)CNCc3ccco3)cccc2[nH]1` (stereo unspecified), the AC50 under setting [1] is 14.1 µM [falling, partial curve, poor fit].

As to `O=C1OCCC1Sc1nnc(-c2cccc(Br)c2)o1` (stereo unspecified), the AC50 under setting [1] is 25.9 µM [falling, partial curve, poor fit].

For `Cn1nnc2c(NCc3ccc(Cl)cc3)ncnc21`, the half-maximal activity concentration (AC50) under setting [1] was 22.4 µM [falling, single point].

Consider `O=C(NC1CCCCC1)N1CCN(C(c2ccccc2)c2ccccc2)CC1`, for which the concentration at half-maximal activity (AC50) under setting [1] was 29.1 µM [falling, single point].

For `N=c1scc(-c2ccccc2)n1/N=C/c1ccco1`, the AC50 by setting is: under setting [1], 11.6 µM [falling, partial curve, poor fit]; under setting [2], 20.6 µM [rising, partial curve, poor fit].

As for `O=C(c1ccc(F)cc1)n1ccc(-c2cnc(-c3ccccc3)s2)n1`, the AC50 under setting [1] is 16.4 µM [falling, single point].

As to `O=C(NCc1ccco1)C1CC(c2ccccc2O)=NO1` (stereo unspecified), under setting [1], the AC50 was 10 µM [falling, partial curve].

In the case of `CCc1nnc(NC(=O)CCC(=O)N2CCN(C3c4ccccc4-c4ccccc43)CC2)s1`, the half-maximal activity concentration (AC50) under setting [1] was 4.11 µM [rising, partial curve, poor fit].

For `Cc1nnc(SC(C)C(=O)NCC2CCCO2)s1` (stereo unspecified), the AC50 under setting [1] is 29.1 µM [rising, single point].

Consider `Cc1cccc(N=C2NC(=O)/C(=C/c3cccnc3)S2)c1C`, for which the half-maximal activity concentration (AC50) under setting [1] is 12.6 µM [falling, partial curve, poor fit].
